No constants are given. Whether binding was seen depends on the method and setting. Some entries that bind do so weakly or less than the wild type. Where a sequence is shown, tags or fusion partners need not be part of it.
B1: His6-tagged WT TRN-SR2 (transportin-SR2) (protein, UniProt Q9Y5L0-2 1-923)
chain: MEGAKPTLQLVYQAVQALYHDPDPSGKERASFWLGELQRSVHAWEISDQLLQIRQDVESCYFAAQTMKMKIQTSFYELPTDSHASLRDSLLTHIQNLKDLSPVIVTQLALAIADLALQMPSWKGCVQTLVEKYSNDVTSLPFLLEILTVLPEEVHSRSLRIGANRRTEIIEDLAFYSSTVVSLLMTCVEKAGTDEKMLMKVFRCLGSWFNLGVLDSNFMANNKLLALLFEVLQQDKTSSNLHEAASDCVCSALYAIENVETNLPLAMQLFQGVLTLETAYHMAVAREDLDKVLNYCRIFTELCETFLEKIVCTPGQGLGDLRTLELLLICAGHPQYEVVEISFNFWYRLGEHLYKTNDEVIHGIFKAYIQRLLHALARHCQLEPDHEGVPEETDDFGEFRMRVSDLVKDLIFLIGSMECFAQLYSTLKEGNPPWEVTEAVLFIMAAIAKSVDPENNPTLVEVLEGVVRLPETVHTAVRYTSIELVGEMSEVVDRNPQFLDPVLGYLMKGLCEKPLASAAAKAIHNICSVCRDHMAQHFNGLLEIARSLDSFLLSPEAAVGLLKGTALVLARLPLDKITECLSELCSVQVMALKKLLSQEPSNGISSDPTVFLDRLAVIFRHTNPIVENGQTHPCQKVIQEIWPVLSETLNKHRADNRIVERCCRCLRFAVRCVGKGSAALLQPLVTQMVNVYHVHQHSCFLYLGSILVDEYGMEEGCRQGLLDMLQALCIPTFQLLEQQNGLQNHPDTVDDLFRLATRFIQRSPVTLLRSQVVIPILQWAIASTTLDHRDANCSVMRFLRDLIHTGVANDHEEDFELRKELIGQVMNQLGQQLVSQLLHTCCFCLPPYTLPDVAEVLWEIMQVDRPTFCRWLENSLKGLPKETTVGAVTVTHKQLTDFHKQVTSAEECKQVCWALRDFTRLFR
B2: His6-tagged ΔV105 TRN-SR2 (protein, UniProt Q9Y5L0-2 1-923)
chain: MEGAKPTLQLVYQAVQALYHDPDPSGKERASFWLGELQRSVHAWEISDQLLQIRQDVESCYFAAQTMKMKIQTSFYELPTDSHASLRDSLLTHIQNLKDLSPVITQLALAIADLALQMPSWKGCVQTLVEKYSNDVTSLPFLLEILTVLPEEVHSRSLRIGANRRTEIIEDLAFYSSTVVSLLMTCVEKAGTDEKMLMKVFRCLGSWFNLGVLDSNFMANNKLLALLFEVLQQDKTSSNLHEAASDCVCSALYAIENVETNLPLAMQLFQGVLTLETAYHMAVAREDLDKVLNYCRIFTELCETFLEKIVCTPGQGLGDLRTLELLLICAGHPQYEVVEISFNFWYRLGEHLYKTNDEVIHGIFKAYIQRLLHALARHCQLEPDHEGVPEETDDFGEFRMRVSDLVKDLIFLIGSMECFAQLYSTLKEGNPPWEVTEAVLFIMAAIAKSVDPENNPTLVEVLEGVVRLPETVHTAVRYTSIELVGEMSEVVDRNPQFLDPVLGYLMKGLCEKPLASAAAKAIHNICSVCRDHMAQHFNGLLEIARSLDSFLLSPEAAVGLLKGTALVLARLPLDKITECLSELCSVQVMALKKLLSQEPSNGISSDPTVFLDRLAVIFRHTNPIVENGQTHPCQKVIQEIWPVLSETLNKHRADNRIVERCCRCLRFAVRCVGKGSAALLQPLVTQMVNVYHVHQHSCFLYLGSILVDEYGMEEGCRQGLLDMLQALCIPTFQLLEQQNGLQNHPDTVDDLFRLATRFIQRSPVTLLRSQVVIPILQWAIASTTLDHRDANCSVMRFLRDLIHTGVANDHEEDFELRKELIGQVMNQLGQQLVSQLLHTCCFCLPPYTLPDVAEVLWEIMQVDRPTFCRWLENSLKGLPKETTVGAVTVTHKQLTDFHKQVTSAEECKQVCWALRDFTRLFR

Amino acid sequences for entries named in this document (tags omitted).
UniProt Q07955: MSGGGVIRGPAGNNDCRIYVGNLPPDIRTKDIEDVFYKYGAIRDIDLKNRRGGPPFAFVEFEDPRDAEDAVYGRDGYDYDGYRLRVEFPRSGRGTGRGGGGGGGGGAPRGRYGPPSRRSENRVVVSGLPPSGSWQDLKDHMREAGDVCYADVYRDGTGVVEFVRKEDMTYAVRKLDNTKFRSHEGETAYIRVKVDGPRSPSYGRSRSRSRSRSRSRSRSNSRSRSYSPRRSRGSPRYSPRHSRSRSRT

Biological target: GST-tagged ASF/SF2 (alternative splicing factor 1/pre-mRNA splicing factor SF2) (UniProt Q07955)
Assay: AlphaScreen or HTRF; His6-TRN-SR2 titrated (3-fold dilution series from 1,000 nM) over a fixed 30 nM GST-ASF/SF2; 25 mM Tris pH 7.4, 150 mM NaCl, 1 mM MgCl2, 0.1% Tween 20, 0.1% BSA; both purified

| binding | Binder |
| --- | --- |
| binds | B1 |
| binds | B2 |
